From the supplement of paper PMC5407854, “Inhibitor of ppGalNAc-T3-mediated O-glycosylation blocks cancer cell invasiveness and lowers FGF23 levels” (eLife, 2017)
Some of the results follow. Most values lie at the level of the controls, where differences are scatter.

system: ppGalNAc-T3 sensor; assay: T3 sensor activation Q score (MG/GFP ratio z-score vs DMSO controls) (SD units); higher = more sensor activation (inhibition of ppGalNAc-T3 glycosylation); conditions: HEK293 sensor cells; 10 µM; 6 h
Procedure: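 Cells were treated with compound at 10 uM for 6 h, then MG/GFP ratio was read by flow cytometry (10,000 cells per well, duplicate wells). Q = (R - R_neg)/SD_neg relative to DMSO vehicle controls; the signal rises when the glycosyltransferase is inhibited.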

Question: For CN(C)CCN(C)Cc1cccc(Cl)c1Cl, which “T3 sensor activation Q score” value is on record?
Answer: 0.49

Question: With COc1ccc(C2C(C(C)=O)=C(O)C(=O)N2C)cc1 (centres undefined) as the compound, how does the “T3 sensor activation Q score” value read?
Answer: 0.315

Question: CCN(CC)c1ccc(NC(=O)c2ccco2)cc1 was tested. Which “T3 sensor activation Q score” value did it give?
Answer: 0.05

Question: With c1ccc(OCCCn2ccnc2)cc1 as the compound, how does the “T3 sensor activation Q score” value read?
Answer: 0.435

Question: How did the “T3 sensor activation Q score” value turn out when Cc1ccc(S(=O)(=O)Nc2cccc3ccc(-n4nc(C)cc4C)nc23)cc1 was run?
Answer: -0.32

Question: For COc1ccc(C2C(=C(O)c3ccccc3)C(=O)C(=O)N2C)cc1OC (centres undefined), which “T3 sensor activation Q score” value is on record?
Answer: -0.555

Question: For CCOc1ccc(CN2CCN(c3ccccn3)CC2)cc1, which “T3 sensor activation Q score” value is on record?
Answer: 0.515

Question: With Clc1ccc(CNC2CCN(Cc3ccccc3)CC2)cc1 as the compound, how does the “T3 sensor activation Q score” value read?
Answer: -0.145

Question: NC(=O)C1CCN(Cc2ccc(Br)cc2)CC1 was tested. Which “T3 sensor activation Q score” value did it give?
Answer: 0.23

Question: For COc1cc2nc(C)[nH]c2cc1OC, which “T3 sensor activation Q score” value is on record?
Answer: 0.61

Question: With Cc1ccc(S(=O)(=O)NC2CCCCC2)c2nsnc12 as the compound, how does the “T3 sensor activation Q score” value read?
Answer: -0.98

Question: With Cc1ccc(NC(=O)COc2ccc(Cl)cc2Cl)cc1 as the compound, how does the “T3 sensor activation Q score” value read?
Answer: -0.385

Question: O=C(NN1C(=O)c2ccccc2C1=O)c1cccc(Cl)c1 was tested. Which “T3 sensor activation Q score” value did it give?
Answer: 0.57

Question: O=C(NCCO)C12CC3CCC(CC(C3)C1)C2 was tested. Which “T3 sensor activation Q score” value did it give?
Answer: 0.3

Question: How did the “T3 sensor activation Q score” value turn out when COc1nc(Nc2ccc(C)cc2)nc(OC)n1 was run?
Answer: -0.15

Question: With COc1ccccc1NC1=CC(=O)CC(c2ccccc2)C1 (centres undefined) as the compound, how does the “T3 sensor activation Q score” value read?
Answer: -0.51

Question: Which “T3 sensor activation Q score” value does the source give for Cc1cc(C)c(S(=O)(=O)N2CCCC2=O)c(C)c1 here?
Answer: -0.435

Question: CC(O)C#CCN(Cc1ccccc1)C(C)C (centres undefined) was tested. Which “T3 sensor activation Q score” value did it give?
Answer: -0.12

Question: With Cc1cccc(C)c1OCCCN1CCOCC1 as the compound, how does the “T3 sensor activation Q score” value read?
Answer: 0.16

Question: Which “T3 sensor activation Q score” value does the source give for CN(Cc1ccccc1)Cc1c(F)cccc1F here?
Answer: 0.44

Question: How did the “T3 sensor activation Q score” value turn out when Clc1ccccc1CN1CCc2ccccc2C1 was run?
Answer: 0.115

Question: Which “T3 sensor activation Q score” value does the source give for CC(C(=O)O)N1C(=O)c2ccccc2C1=O (centres undefined) here?
Answer: -0.055

Question: Which “T3 sensor activation Q score” value does the source give for O=C(c1cccs1)N1CCN(c2ccc([N+](=O)[O-])cc2)CC1 here?
Answer: 0.75

Question: Which “T3 sensor activation Q score” value does the source give for COc1cc2c(cc1OC)C(c1ccccc1[N+](=O)[O-])NCC2 (centres undefined) here?
Answer: -1.36

Question: How did the “T3 sensor activation Q score” value turn out when Cc1cc(-c2ccccc2)nc2cc(C(N)=O)nn12 was run?
Answer: -0.36

Question: For CCN(CC)S(=O)(=O)c1cc(C(=O)O)ccc1Br, which “T3 sensor activation Q score” value is on record?
Answer: 0.08

Question: With CCC1CCCCN1S(=O)(=O)c1cc(C)c(C)cc1OC (centres undefined) as the compound, how does the “T3 sensor activation Q score” value read?
Answer: 0.875

Question: With Oc1ccc(O)c([S+]2CCCCC2)c1 as the compound, how does the “T3 sensor activation Q score” value read?
Answer: -0.445

Question: With CN(C)c1nc(N(C)C)nc(N(C)C)n1 as the compound, how does the “T3 sensor activation Q score” value read?
Answer: -0.035

Question: CN(C)CCN(C)Cc1ccccc1 was tested. Which “T3 sensor activation Q score” value did it give?
Answer: 0.525

Question: How did the “T3 sensor activation Q score” value turn out when Nc1nnc(COc2ccccc2)s1 was run?
Answer: 1.25

Question: For CCOc1ccccc1N1CCN(Cc2cc3c(cc2[N+](=O)[O-])OCO3)CC1, which “T3 sensor activation Q score” value is on record?
Answer: 0.115

Question: With Cc1ccc(C(O)=C2C(=O)C(=O)N(C)C2c2ccc(F)cc2)cc1 (centres undefined) as the compound, how does the “T3 sensor activation Q score” value read?
Answer: 0.45

Question: How did the “T3 sensor activation Q score” value turn out when CCOc1ccccc1CN1CCN(c2ccc([N+](=O)[O-])cc2)CC1 was run?
Answer: 0.48

Question: CC(=O)Nc1ccc(NC(=O)COc2cccc(C)c2)cc1 was tested. Which “T3 sensor activation Q score” value did it give?
Answer: -0.54

Question: CC(=O)c1ccc(N2CCOCC2)c(F)c1 was tested. Which “T3 sensor activation Q score” value did it give?
Answer: -0.145

Question: Which “T3 sensor activation Q score” value does the source give for COc1ccccc1C(=O)Nc1ccc(-c2nc3cc(Cl)ccc3o2)cc1 here?
Answer: -1.48

Question: Which “T3 sensor activation Q score” value does the source give for c1ccc(CN2CCC(NC3C4CC5CC(C4)CC3C5)CC2)cc1 (centres undefined) here?
Answer: 1.29

Question: Which “T3 sensor activation Q score” value does the source give for COc1cccc(NC(=O)CCCc2ccccc2)c1 here?
Answer: -0.035
